Reference: the supplement of paper PMC6414424
± gives the standard deviation of the averaged measurements. Some of the results follow.

system: APPdp1-6 iPSC-derived neurons; assay: pThr231Tau/total Tau ratio Z-score vs DMSO vehicle wells; higher = more pThr231Tau relative to total Tau; conditions: 5 µM; treatment time 5 days

| SMILES | pThr231Tau/total Tau ratio Z-score |
| --- | --- |
| Nc1cc(C(Cl)=C(Cl)Cl)c(S(N)(=O)=O)cc1S(N)(=O)=O [Prestw-540] | -0.0793 ± 1.6 |
| Cc1c(N(C)CS(=O)(=O)O)c(=O)n(-c2ccccc2)n1C [Prestw-713] | -0.829 ± 1.4 |
| CNCC(O)c1ccc(OC(=O)C(C)(C)C)c(OC(=O)C(C)(C)C)c1 (stereo not given) [Prestw-632] | 1.25 ± 0.52 |
| CCN(CC)CCc1nc(-c2ccccc2)no1 [Prestw-826] | -0.393 ± 1.9 |
| CCc1cn([C@H]2C[C@H](O)[C@@H](CO)O2)c(=O)[nH]c1=O [EDOXUDINE    Therap cat: antiviral] | 0.43 ± 1.2 |
| CC(C)NC[C@@H](O)COc1cccc2ccccc12 [Prestw-1081] | 0.372 ± 0.83 |
| CC(C)NC[C@@H](O)COc1cccc2ccccc12 [Prestw-1075] | 0.717 ± 0.12 |
| Oc1cc(O)c2c(c1)O[C@@H](c1ccc(O)c(O)c1)[C@H](O)C2 [Catechin] | -1.16 ± 1.8 |
| CCCNCC(O)COc1ccccc1C(=O)CCc1ccccc1 (stereo not given) [Prestw-499] | -0.889 ± 1.6 |
| NC(=O)C(c1ccccc1)(c1ccccc1)[C@@H]1CCN(CCc2ccc3c(c2)CCO3)C1 [Prestw-1514] | -0.0439 ± 0.33 |
| COc1cc([C@@H]2c3cc4c(cc3[C@@H](O[C@@H]3O[C@@H]5CO[C@@H](C)O[C@H]5[C@H](O)[C@H]3O)[C@H]3COC(=O)[C@H]23)OCO4)cc(OC)c1O [Prestw-396] | -1.94 ± 0.88 |
| COc1ccccc1OCC(O)CN1CCN(CC(=O)Nc2c(C)cccc2C)CC1 (stereo not given) [Prestw-1092] | 0.448 ± 0.52 |
| C[C@H]1C[C@@H]2[C@H]([C@@H](O)C[C@@]3(C)[C@H]2CC[C@]3(O)C(=O)CO)[C@@]2(C)C=CC(=O)C=C12 [Prestw-279] | -0.105 ± 0.027 |
| CC(=O)O[C@]1(C(C)=O)CC[C@H]2[C@@H]3C[C@H](C)C4=CC(=O)CC[C@]4(C)[C@H]3CC[C@@]21C | 0.567 ± 1.5 |
| O=C(O)c1cc(-c2ccccc2)nc2ccccc12 | 0.461 ± 0.32 |
| CC(C)NCC(O)c1ccc2ccccc2c1 (stereo not given) [Prestw-974] | -0.774 ± 0.44 |
| Nc1nc2n[nH]nc2c(=O)[nH]1 [Prestw-1] | 0.436 ± 0.22 |
| CN(C)c1nc(N(C)C)nc(N(C)C)n1 [Prestw-946] | -0.17 ± 0.39 |
| NC(=O)c1ccc([N+](=O)[O-])cc1Cl [AKLOMIDE    Therap cat: antiprotosoal] | 1.82 ± 1.6 |
| O=C1OCCN1/N=C/c1ccc([N+](=O)[O-])o1 [Prestw-808] | -0.113 ± 0.3 |
| Cc1c(O)c(=O)ccn1C | 1.36 ± 0.81 |
| O=S(=O)(O)c1cc(O)ccc1O [Prestw-1015] | -0.352 ± 0.89 |
| CCC(=O)O[C@]1(C(=O)CCl)[C@@H](C)C[C@H]2[C@@H]3CCC4=CC(=O)C=C[C@]4(C)[C@@]3(F)[C@@H](O)C[C@@]21C [Prestw-781] | -0.0907 ± 0.94 |
| c1ccc([C@H]2CN3CCSC3=N2)cc1 [Prestw-182] | 0.0644 ± 0.63 |
| COc1ccc(C2CNC(=O)C2)cc1OC1CCCC1 (stereo not given) [Prestw-924] | 1.94 ± 2.5 |
| COc1ccc2[nH]cc(CCNC(C)=O)c2c1 [Prestw-458] | 0.382 ± 0.086 |
| NC[C@H]1O[C@H](O[C@H]2[C@H](O[C@@H]3O[C@H](CO)[C@@H](O)[C@H]3O)[C@@H](O)[C@H](N)C[C@@H]2N)[C@H](N)[C@@H](O)[C@@H]1O [Prestw-758] | 0.93 ± 0.84 |
| COc1ccc(C(=O)NCc2cccnc2)cc1C(=O)NCc1cccnc1 [Prestw-119] | 0.166 ± 0.26 |

| SMILES | pThr231Tau/total Tau ratio Z-score |
| --- | --- |
| CN(C)CCOC1=Cc2ccccc2Sc2ccc(Cl)cc21 [Prestw-1368] | -1.47 ± 0.36 |
| CCN(Cc1ccncc1)C(=O)C(CO)c1ccccc1 (stereo not given) [Prestw-228] | -0.0495 ± 1.1 |
| O=C(NCCNCC(O)COc1ccc(O)cc1)N1CCOCC1 (stereo not given) [Prestw-923] | 1.08 ± 0.73 |
| Cc1ncc([N+](=O)[O-])n1CCO [Prestw-81] | -0.0106 ± 0.53 |
| CCN(CC)CC#CCOC(=O)C(O)(c1ccccc1)C1CCCCC1 (stereo not given) [Prestw-287] | -0.0872 ± 0.44 |
| OC(CCN1CCCCC1)(c1ccccc1)C1CC2C=CC1C2 (stereo not given) [Prestw-502] | 0.341 ± 0.23 |
| CN1C2CCCC1CC(NC(=O)c1nn(C)c3ccccc13)C2 (stereo not given) [Prestw-1187] | 0.467 ± 0.035 |
| CC(C)N1CCN(c2ccc(OCC3COC(Cn4cncn4)(c4ccc(Cl)cc4Cl)O3)cc2)CC1 (stereo not given) [Prestw-495] | -1.22 ± 0.028 |
| O=C(CCCN1CC=C(n2c(=O)[nH]c3ccccc32)CC1)c1ccc(F)cc1 [Prestw-360] | -1.55 ± 0.81 |
| CCN(CC)CCNC(=O)c1cc(S(C)(=O)=O)ccc1OC [Prestw-216] | -0.741 ± 0.31 |
| Oc1c(I)cc(I)c2cccnc12 [IODOQUINOL    Therap cat:  Anti-amebic] | 1.11 ± 1.1 |
| C#CCN(C)Cc1ccccc1 [Prestw-183] | 0.256 ± 1.9 |
| C[C@H]1[C@@H](O)O[C@@H]2O[C@@]3(C)CC[C@H]4[C@H](C)CC[C@@H]1[C@@]24OO3 | -0.507 ± 1.1 |
| CCn1cc(C(=O)O)c(=O)c2ccc(C)nc21 [Prestw-1447] | 0.232 ± 0.42 |
| COc1ccc2cc(CCC(C)=O)ccc2c1 [Prestw-909] | -0.846 ± 0.83 |
| O=C(O)CCC(=O)OC[C@@H](NC(=O)C(Cl)Cl)[C@H](O)c1ccc([N+](=O)[O-])cc1 | 1.11 ± 2.5 |
| O[C@H]1[C@H](O)[C@@H](O)[C@H](O)[C@@H](O)[C@@H]1O [Scyllitol] | -0.682 ± 0.15 |
| CC(=O)N[C@@H](CC(=O)N[C@@H](CCC(=O)O)C(=O)O)C(=O)O | -0.0487 ± 0.46 |
| CC(=O)N[C@@H](CC(=O)N[C@@H](CCC(=O)O)C(=O)O)C(=O)O [Prestw-1091] | 0.251 ± 0.12 |
| Cc1ccc(S(=O)(=O)NC(=O)NN2CC3CCCC3C2)cc1 (stereo not given) [Prestw-558] | 0.182 ± 1.8 |
| COc1cc2nc(N3CCN(C(=O)c4ccco4)CC3)nc(N)c2cc1OC [Prestw-947] | -1.09 ± 0.57 |
| NCCS(=O)(=O)O [Taurine] | 0.707 ± 0.41 |
| CCn1cc(C(=O)O)c(=O)c2cnc(N3CCNCC3)nc21 [Prestw-897] | 0.177 ± 0.38 |
| COc1nc(C)nc(Cl)c1NC1=NCCN1 [Prestw-1016] | 0.62 ± 0.048 |
| CCCCC(C)(O)C/C=C/[C@H]1[C@H](O)CC(=O)[C@@H]1CCCCCCC(=O)OC (stereo not given in full) [Prestw-1443] | 0.0991 ± 0.38 |
| Cc1ncc(CSSCc2cnc(C)c(O)c2CO)c(CO)c1O | -0.132 ± 0.75 |
| CC(=O)Oc1cccc2c1C(=O)c1c(OC(C)=O)cc(C(=O)O)cc1C2=O [Prestw-1167] | 0.965 ± 2.9 |

Some values from the results shown:
Value for Cc1c(O)c(=O)ccn1C under pThr231Tau/total Tau ratio Z-score: 1.36 ± 0.81
Value for O=C(NCCNCC(O)COc1ccc(O)cc1)N1CCOCC1 (stereo not given) [Prestw-923] under pThr231Tau/total Tau ratio Z-score: 1.08 ± 0.73
Value for COc1ccccc1OCC(O)CN1CCN(CC(=O)Nc2c(C)cccc2C)CC1 (stereo not given) [Prestw-1092] under pThr231Tau/total Tau ratio Z-score: 0.448 ± 0.52
